± gives the standard deviation of the averaged measurements. Some of the results follow.

Sequences of proteins named here, by UniProt entry; tags and fusion partners are left off. A change or cut given only in a name is not applied to a line headed by its entry.
UniProt Q13227: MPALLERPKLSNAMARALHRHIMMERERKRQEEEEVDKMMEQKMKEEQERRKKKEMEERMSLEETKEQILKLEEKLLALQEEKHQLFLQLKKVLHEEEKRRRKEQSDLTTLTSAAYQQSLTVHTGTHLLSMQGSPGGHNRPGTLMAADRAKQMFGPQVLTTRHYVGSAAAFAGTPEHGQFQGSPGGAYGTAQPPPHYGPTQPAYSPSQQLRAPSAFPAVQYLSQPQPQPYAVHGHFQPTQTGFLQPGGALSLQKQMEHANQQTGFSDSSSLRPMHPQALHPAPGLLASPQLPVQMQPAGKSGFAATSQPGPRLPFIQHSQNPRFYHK
UniProt Q8TCD5: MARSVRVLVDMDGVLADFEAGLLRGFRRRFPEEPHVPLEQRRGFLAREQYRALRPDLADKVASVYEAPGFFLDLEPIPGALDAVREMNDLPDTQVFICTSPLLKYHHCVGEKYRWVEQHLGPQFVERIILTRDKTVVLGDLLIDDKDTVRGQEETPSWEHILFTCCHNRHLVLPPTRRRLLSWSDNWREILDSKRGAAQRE
UniProt Q99708: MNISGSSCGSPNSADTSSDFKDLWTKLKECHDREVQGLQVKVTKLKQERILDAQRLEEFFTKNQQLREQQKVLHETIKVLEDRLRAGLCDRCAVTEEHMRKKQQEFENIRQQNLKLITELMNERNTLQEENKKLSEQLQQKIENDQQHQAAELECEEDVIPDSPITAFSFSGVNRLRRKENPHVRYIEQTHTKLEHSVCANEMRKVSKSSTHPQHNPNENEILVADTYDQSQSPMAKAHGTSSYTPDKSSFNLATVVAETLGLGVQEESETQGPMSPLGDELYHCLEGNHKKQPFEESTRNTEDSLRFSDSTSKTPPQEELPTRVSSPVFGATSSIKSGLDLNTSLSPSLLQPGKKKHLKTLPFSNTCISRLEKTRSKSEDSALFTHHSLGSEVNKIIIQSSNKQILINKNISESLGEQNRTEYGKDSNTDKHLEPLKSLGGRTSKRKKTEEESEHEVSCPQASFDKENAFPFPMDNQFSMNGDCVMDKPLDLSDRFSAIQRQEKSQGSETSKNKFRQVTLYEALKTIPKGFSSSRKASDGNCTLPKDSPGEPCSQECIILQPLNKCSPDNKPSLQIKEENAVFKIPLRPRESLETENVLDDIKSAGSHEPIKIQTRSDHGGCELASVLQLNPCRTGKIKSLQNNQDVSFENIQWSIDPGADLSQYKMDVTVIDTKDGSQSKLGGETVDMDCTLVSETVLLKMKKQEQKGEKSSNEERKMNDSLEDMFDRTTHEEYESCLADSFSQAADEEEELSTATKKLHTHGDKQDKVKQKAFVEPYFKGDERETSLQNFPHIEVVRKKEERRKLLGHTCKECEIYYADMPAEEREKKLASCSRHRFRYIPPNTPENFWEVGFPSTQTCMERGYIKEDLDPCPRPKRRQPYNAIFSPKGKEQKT
UniProt Q9BUL5: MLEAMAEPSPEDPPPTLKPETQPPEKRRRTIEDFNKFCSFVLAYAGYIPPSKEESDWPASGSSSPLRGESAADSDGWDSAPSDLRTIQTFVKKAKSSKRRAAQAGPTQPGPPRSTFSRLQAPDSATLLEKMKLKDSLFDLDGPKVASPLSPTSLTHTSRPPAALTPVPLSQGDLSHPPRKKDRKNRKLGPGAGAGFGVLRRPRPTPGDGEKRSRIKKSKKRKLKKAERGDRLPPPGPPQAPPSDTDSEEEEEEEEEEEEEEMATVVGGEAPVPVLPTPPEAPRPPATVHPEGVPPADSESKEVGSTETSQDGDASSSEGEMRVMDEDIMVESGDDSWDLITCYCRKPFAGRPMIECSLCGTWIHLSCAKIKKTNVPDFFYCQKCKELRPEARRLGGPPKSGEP
UniProt P67936, whole entry: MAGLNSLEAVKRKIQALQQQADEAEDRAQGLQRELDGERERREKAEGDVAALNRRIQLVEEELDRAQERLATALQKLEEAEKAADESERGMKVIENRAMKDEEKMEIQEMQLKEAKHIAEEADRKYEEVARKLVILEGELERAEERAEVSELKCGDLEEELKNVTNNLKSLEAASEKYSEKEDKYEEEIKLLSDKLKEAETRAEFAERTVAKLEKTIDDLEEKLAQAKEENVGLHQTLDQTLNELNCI
UniProt P06865: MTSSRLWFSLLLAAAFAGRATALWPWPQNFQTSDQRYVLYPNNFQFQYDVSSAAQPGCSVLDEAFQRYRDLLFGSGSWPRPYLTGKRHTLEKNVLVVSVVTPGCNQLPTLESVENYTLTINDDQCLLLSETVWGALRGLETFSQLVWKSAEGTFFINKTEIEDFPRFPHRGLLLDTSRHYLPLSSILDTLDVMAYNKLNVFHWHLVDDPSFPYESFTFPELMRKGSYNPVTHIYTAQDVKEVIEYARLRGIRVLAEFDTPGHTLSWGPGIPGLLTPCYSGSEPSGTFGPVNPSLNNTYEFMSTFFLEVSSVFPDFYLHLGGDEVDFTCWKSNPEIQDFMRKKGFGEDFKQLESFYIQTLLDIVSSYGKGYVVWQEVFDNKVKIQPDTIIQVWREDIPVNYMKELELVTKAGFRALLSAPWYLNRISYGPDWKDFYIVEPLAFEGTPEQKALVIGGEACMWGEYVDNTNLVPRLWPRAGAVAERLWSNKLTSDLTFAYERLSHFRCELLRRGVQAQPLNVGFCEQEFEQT
UniProt Q8NG11: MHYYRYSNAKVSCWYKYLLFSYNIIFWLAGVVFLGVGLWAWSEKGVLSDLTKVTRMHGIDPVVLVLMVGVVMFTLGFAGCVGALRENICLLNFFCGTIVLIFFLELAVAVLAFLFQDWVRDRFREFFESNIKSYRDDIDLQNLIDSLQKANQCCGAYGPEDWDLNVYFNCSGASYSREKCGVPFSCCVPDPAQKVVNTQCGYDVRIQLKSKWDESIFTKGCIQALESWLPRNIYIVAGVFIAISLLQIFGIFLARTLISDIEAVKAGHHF
UniProt Q8WVC6: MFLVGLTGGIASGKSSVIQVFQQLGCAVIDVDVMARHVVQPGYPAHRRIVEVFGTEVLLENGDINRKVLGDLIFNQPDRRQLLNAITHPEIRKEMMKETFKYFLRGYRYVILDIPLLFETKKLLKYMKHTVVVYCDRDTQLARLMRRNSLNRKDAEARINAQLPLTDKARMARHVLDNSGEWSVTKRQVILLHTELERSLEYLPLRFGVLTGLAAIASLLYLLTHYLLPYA
UniProt P27797, whole entry: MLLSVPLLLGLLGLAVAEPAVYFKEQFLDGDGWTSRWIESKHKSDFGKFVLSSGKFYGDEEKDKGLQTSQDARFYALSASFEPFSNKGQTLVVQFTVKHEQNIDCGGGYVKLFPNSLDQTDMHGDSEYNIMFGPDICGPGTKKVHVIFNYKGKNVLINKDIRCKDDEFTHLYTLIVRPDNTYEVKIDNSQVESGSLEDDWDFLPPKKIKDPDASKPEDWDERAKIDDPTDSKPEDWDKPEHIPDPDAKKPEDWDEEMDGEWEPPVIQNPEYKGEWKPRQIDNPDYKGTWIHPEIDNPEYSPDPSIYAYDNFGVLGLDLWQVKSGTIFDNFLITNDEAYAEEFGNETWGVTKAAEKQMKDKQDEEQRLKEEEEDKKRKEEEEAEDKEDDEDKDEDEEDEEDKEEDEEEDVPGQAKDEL
UniProt P50990: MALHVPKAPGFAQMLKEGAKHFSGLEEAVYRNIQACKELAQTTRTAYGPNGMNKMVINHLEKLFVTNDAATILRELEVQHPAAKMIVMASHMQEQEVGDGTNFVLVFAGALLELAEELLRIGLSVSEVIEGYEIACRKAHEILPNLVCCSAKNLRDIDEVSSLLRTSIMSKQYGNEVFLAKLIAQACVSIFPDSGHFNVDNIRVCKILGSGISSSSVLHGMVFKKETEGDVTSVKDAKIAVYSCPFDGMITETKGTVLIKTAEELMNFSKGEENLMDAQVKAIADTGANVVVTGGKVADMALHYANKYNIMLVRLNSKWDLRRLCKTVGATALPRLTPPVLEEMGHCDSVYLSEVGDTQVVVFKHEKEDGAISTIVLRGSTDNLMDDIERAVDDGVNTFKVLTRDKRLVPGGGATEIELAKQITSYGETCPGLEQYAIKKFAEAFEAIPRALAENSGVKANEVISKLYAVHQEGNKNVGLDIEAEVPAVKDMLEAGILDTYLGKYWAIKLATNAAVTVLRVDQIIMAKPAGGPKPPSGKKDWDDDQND
UniProt Q9HAD4: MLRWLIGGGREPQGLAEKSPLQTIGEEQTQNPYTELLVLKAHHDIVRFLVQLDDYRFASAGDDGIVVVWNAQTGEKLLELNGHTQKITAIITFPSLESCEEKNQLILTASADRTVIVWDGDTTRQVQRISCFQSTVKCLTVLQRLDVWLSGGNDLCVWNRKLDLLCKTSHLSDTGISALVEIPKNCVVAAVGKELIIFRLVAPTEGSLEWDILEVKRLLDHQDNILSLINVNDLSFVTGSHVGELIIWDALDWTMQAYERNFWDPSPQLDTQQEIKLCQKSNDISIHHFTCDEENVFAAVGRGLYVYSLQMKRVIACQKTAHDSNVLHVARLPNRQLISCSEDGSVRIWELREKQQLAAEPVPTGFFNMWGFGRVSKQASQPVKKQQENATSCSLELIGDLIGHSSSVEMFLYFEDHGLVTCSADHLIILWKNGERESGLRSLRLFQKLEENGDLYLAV
UniProt Q5JPH6: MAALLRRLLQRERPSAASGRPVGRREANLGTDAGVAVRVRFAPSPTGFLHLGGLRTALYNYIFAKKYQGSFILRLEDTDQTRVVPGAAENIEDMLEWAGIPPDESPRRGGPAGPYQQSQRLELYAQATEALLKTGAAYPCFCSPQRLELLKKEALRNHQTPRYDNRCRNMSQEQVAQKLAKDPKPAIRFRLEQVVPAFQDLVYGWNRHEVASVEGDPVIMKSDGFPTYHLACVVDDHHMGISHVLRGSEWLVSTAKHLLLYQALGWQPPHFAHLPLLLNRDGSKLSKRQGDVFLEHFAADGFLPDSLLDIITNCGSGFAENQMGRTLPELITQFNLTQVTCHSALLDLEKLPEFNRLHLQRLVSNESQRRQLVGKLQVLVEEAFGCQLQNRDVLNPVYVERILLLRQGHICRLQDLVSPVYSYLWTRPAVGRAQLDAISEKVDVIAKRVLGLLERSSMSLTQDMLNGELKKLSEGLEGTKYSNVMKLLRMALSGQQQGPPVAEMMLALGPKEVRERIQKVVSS

Compound in the assay: Nc1nc2c(ncn2[C@@H]2O[C@H](COP(=O)(O)OP(=O)(O)OP(=O)(O)O)[C@@H](O)[C@H]2O)c(=O)[nH]1 [guanosine triphosphate]
Description: NP40-soluble protein abundance relative to vehicle (solubility fold change) (ratio); higher = more soluble protein in presence of GTP. In short, it runs like this: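 In three independent experiments, Jurkat crude lysate made by Dounce homogenisation was treated for 10 min at room temperature and then 3 min at 37 °C with eight concentrations ranging from 0.1 to 10 mM. It was then solubilised with 0.8% NP40 plus benzonase for 60 min at 4 °C and ultracentrifuged. The supernatant was TMT-labelled for LC-MS/MS, and each value is the fold change against the detergent-processed vehicle for the same replicate, using vsn-normalised intensities.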

Consider “I3L3P7 and related entries (UniProt P62244)”, for which the NP40-soluble protein abundance stood at 1.09 ± 0.15 (concentration: 0.1mM); 1.03 ± 0.18 (concentration: 0.5mM); 1.11 ± 0.34 (concentration: 1mM); 1.05 ± 0.32 (concentration: 2mM); 0.895 ± 0.3 (concentration: 4mM); 0.818 ± 0.28 (concentration: 6mM). The NP40-soluble protein abundance by setting is: (concentration: 8mM) 0.62 ± 0.19; (concentration: 10mM) 0.767 ± 0.29.

For the target “I3L3Y9 and related entries (UniProt Q13227)”, the NP40-soluble protein abundance reads like this: (concentration: 0.1mM) 0.978 ± 0.059; (concentration: 0.5mM) 0.878 ± 0.0093; (concentration: 1mM) 1.01 ± 0.13; (concentration: 2mM) 1.01 ± 0.072; (concentration: 4mM) 1.02 ± 0.11; (concentration: 6mM) 1.06 ± 0.11. Besides, the NP40-soluble protein abundance by setting is: (concentration: 8mM) 1.03 ± 0.13; (concentration: 10mM) 1.08 ± 0.14.

On to “J3KRC4 and related entries (UniProt Q8TCD5)”, for which the NP40-soluble protein abundance is, setting by setting: (concentration: 0.1mM) 0.986 ± 0.054; (concentration: 0.5mM) 0.977 ± 0.081; (concentration: 1mM) 0.958 ± 0.082; (concentration: 2mM) 0.925 ± 0.096; (concentration: 4mM) 0.863 ± 0.09; (concentration: 6mM) 0.919 ± 0.11. Besides, the NP40-soluble protein abundance runs as follows: (concentration: 8mM) 0.839 ± 0.04; (concentration: 10mM) 0.841 ± 0.046.

With “I6L8A6 and related entries (UniProt Q99708)”, the NP40-soluble protein abundance amounted to 1.05 ± 0.019 (concentration: 0.1mM); 1.03 ± 0.051 (concentration: 0.5mM); 1.059 ± 0.0025 (concentration: 1mM); 1.04 ± 0.049 (concentration: 2mM); 1.03 ± 0.052 (concentration: 4mM); 1.02 ± 0.07 (concentration: 6mM). Also, the NP40-soluble protein abundance (concentration: 8mM) amounted to 1.03 ± 0.1 and the NP40-soluble protein abundance (concentration: 10mM) stood at 1.01 ± 0.049.

On to “I3L4Q4 and related entries (UniProt Q9BUL5)”, for which the NP40-soluble protein abundance by setting is: (concentration: 0.1mM) 0.948 ± 0.09; (concentration: 0.5mM) 0.925 ± 0.13; (concentration: 1mM) 0.936 ± 0.093; (concentration: 2mM) 0.912 ± 0.14; (concentration: 4mM) 0.917 ± 0.12; (concentration: 6mM) 0.891 ± 0.12. The NP40-soluble protein abundance (concentration: 8mM) came to 0.915 ± 0.081 and the NP40-soluble protein abundance (concentration: 10mM) is 0.927 ± 0.12.

As for “K7EQW8 and related entries (UniProt P67936)”, the NP40-soluble protein abundance is, setting by setting: (concentration: 0.1mM) 0.803 ± 0.15; (concentration: 0.5mM) 0.716 ± 0.089; (concentration: 1mM) 1.39 ± 0.5; (concentration: 2mM) 1.19 ± 0.29; (concentration: 4mM) 1.27 ± 0.27; (concentration: 6mM) 1.27 ± 0.21. The NP40-soluble protein abundance was determined as 1.15 ± 0.34 (concentration: 8mM) and 1.83 ± 0.49 (concentration: 10mM).

For “H3BP20 and related entries (UniProt P06865)”, the NP40-soluble protein abundance amounted to 1.06 ± 0.082 (concentration: 0.1mM); 1.05 ± 0.088 (concentration: 0.5mM); 0.966 ± 0.036 (concentration: 1mM); 0.96 ± 0.07 (concentration: 2mM); 0.922 ± 0.051 (concentration: 4mM); 0.932 ± 0.049 (concentration: 6mM). Further, the NP40-soluble protein abundance was determined as 0.901 ± 0.027 (concentration: 8mM) and 0.862 ± 0.032 (concentration: 10mM).

Regarding “H7BXY6 and related entries (UniProt Q8NG11)”, the NP40-soluble protein abundance reads like this: (concentration: 0.1mM) 1.05 ± 0.11; (concentration: 0.5mM) 1.01 ± 0.083; (concentration: 1mM) 1 ± 0.07; (concentration: 2mM) 0.985 ± 0.04; (concentration: 4mM) 0.962 ± 0.025; (concentration: 6mM) 0.921 ± 0.04. Further, the NP40-soluble protein abundance was 0.942 ± 0.096 (concentration: 8mM) and 0.932 ± 0.062 (concentration: 10mM).

On to “K7ESP4 and related entries (UniProt Q8WVC6)”, for which the NP40-soluble protein abundance runs as follows: (concentration: 0.1mM) 1.1 ± 0.045; (concentration: 0.5mM) 1.16 ± 0.11; (concentration: 1mM) 1.03 ± 0.11; (concentration: 2mM) 1.06 ± 0.048; (concentration: 4mM) 1.03 ± 0.039; (concentration: 6mM) 1.04 ± 0.11. Moreover, the NP40-soluble protein abundance by setting is: (concentration: 8mM) 0.968 ± 0.043; (concentration: 10mM) 0.972 ± 0.034.

Turning to “K7EJB9 and related entries (UniProt P27797)”, the NP40-soluble protein abundance (concentration: 0.1mM) was found to be 0.935 ± 0.064; the NP40-soluble protein abundance (concentration: 0.5mM) was 0.958 ± 0.052; the NP40-soluble protein abundance (concentration: 1mM) is 0.946 ± 0.075; the NP40-soluble protein abundance (concentration: 2mM) came to 0.885 ± 0.081; the NP40-soluble protein abundance (concentration: 4mM) is 0.879 ± 0.097; the NP40-soluble protein abundance (concentration: 6mM) turned out to be 0.882 ± 0.086. In addition, the NP40-soluble protein abundance is 0.892 ± 0.07 (concentration: 8mM) and 0.872 ± 0.073 (concentration: 10mM).

As to “H7C4C8 and related entries (UniProt P50990)”, the NP40-soluble protein abundance runs as follows: (concentration: 0.1mM) 0.986 ± 0.01; (concentration: 0.5mM) 1.05 ± 0.061; (concentration: 1mM) 1.07 ± 0.1; (concentration: 2mM) 1.06 ± 0.15; (concentration: 4mM) 1.05 ± 0.17; (concentration: 6mM) 1.06 ± 0.17. The NP40-soluble protein abundance is 1.05 ± 0.18 (concentration: 8mM) and 1 ± 0.19 (concentration: 10mM).

Consider “H0YAA3 and related entries (UniProt Q9HAD4)”, for which the NP40-soluble protein abundance reads like this: (concentration: 0.1mM) 1.2 ± 0.11; (concentration: 0.5mM) 1.06 ± 0.26; (concentration: 1mM) 1.03 ± 0.2; (concentration: 2mM) 0.971 ± 0.17; (concentration: 4mM) 1 ± 0.048; (concentration: 6mM) 0.949 ± 0.079. In addition, the NP40-soluble protein abundance amounted to 0.891 ± 0.11 (concentration: 8mM) and 0.966 ± 0.066 (concentration: 10mM).

As to “H3BTB7 and related entries (UniProt Q5JPH6)”, the NP40-soluble protein abundance runs as follows: (concentration: 0.1mM) 1.04 ± 0.069; (concentration: 0.5mM) 1 ± 0.05; (concentration: 1mM) 0.947 ± 0.045; (concentration: 2mM) 0.958 ± 0.078; (concentration: 4mM) 0.926 ± 0.075; (concentration: 6mM) 0.923 ± 0.065. For the same target, the NP40-soluble protein abundance by setting is: (concentration: 8mM) 0.887 ± 0.053; (concentration: 10mM) 0.878 ± 0.071.

The values above are taken from the supplement of paper PMC6411743.
